According to the supplement of paper PMC12823440, “Inhibitors supercharge kinase turnover through native proteolytic circuits” (Nature, 2025):
Counter-ions that a name gives are not always drawn. This is one part of the list. The calls rarely recur for the same compound in another form.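 Kinases, fused to nanoluciferase, were expressed in K562 cells; luminescence was measured every 4 h from 2 to 18 h as percent of control (DMSO = 100%, positive control = 0%). A time point is decreased if signal falls significantly (2 sigma). Hits were called by the authors by a rule that is not shown; the count of time points alone does not decide it.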

The chains behind the UniProt entries cited, without tags or fusion partners.
UniProt P07947, whole entry, looked up: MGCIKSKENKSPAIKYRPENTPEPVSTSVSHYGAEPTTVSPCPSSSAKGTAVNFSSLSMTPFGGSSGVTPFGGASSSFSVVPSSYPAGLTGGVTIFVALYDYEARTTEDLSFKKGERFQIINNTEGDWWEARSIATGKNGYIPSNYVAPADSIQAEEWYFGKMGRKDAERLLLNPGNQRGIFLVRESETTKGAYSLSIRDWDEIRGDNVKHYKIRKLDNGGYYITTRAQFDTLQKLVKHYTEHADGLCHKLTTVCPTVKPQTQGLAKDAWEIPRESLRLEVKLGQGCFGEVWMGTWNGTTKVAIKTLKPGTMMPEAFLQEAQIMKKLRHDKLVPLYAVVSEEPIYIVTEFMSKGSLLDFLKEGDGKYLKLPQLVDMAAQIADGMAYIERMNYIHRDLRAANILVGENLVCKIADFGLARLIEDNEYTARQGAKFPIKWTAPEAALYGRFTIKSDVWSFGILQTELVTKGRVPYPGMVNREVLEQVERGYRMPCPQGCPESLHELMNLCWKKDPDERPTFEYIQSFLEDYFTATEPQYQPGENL

The molecules below were run against YES1 (UniProt P07947) (assay: kinase-Nluc reporter destabilization hit call (1 = scored as downregulated) (binary); higher = compound decreases kinase abundance). Conditions: K562; 2-18 h.

kinase-Nluc reporter destabilization hit call, inactive:
CCn1c(-c2nonc2N)nc2c(C#CC(C)(C)O)ncc(OC[C@H]3CCCNC3)c21 (10 µM) 0
CNC(=O)c1cc2c(Oc3ccc(NC(=O)C4(C(=O)Nc5ccc(F)cc5)CC4)cc3)ccnc2cc1OC (2.5 µM) 0
C=CC(=O)N1CC[C@@H](Oc2nc(Nc3ccc(N4CCC(N5CCN(C)CC5)CC4)cc3)c(C(N)=O)nc2CC)C1 [Naquotinib (mesylate)] (2.5 µM) 0
C=CC(=O)Nc1cc(Nc2nccc(-c3cn(C)c4ccccc34)n2)c(OC)cc1OCCN(C)C [Rezivertinib] (2.5 µM) 0
Oc1c(F)cc(-c2cnccc2-c2ccc(N3CCOCC3)cc2)cc1F (10 µM) 0
Brc1ccc(CSc2nc3ccccc3o2)cc1 [BMP signaling agonist sb4] (10 µM) 0
O=C1OC(/C=C/c2ccccc2)=NC/1=C\c1cccnc1 (10 µM) 0
O=C(NCCN1CCOCC1)Nc1nc2ccc(Sc3nnc4ccc(-c5ccc(F)cc5)nn34)cc2s1 (10 µM) 0
Cn1c(CNc2cccc(C(=O)NCc3ccccc3C(F)(F)F)c2)nnc1-c1ccncc1 (10 µM) 0
COc1cc2cc(Oc3ccc4ccc(=O)oc4c3)c(=O)oc2cc1O [Daphnoretin] (10 µM) 0
O=C(O)c1cc(N(Cc2ccccc2O)Cc2cc(O)ccc2O)ccc1O [Lavendustin A] (10 µM) 0
Cc1c(Cl)cccc1S(=O)(=O)Nc1nc(NCCc2ccccc2)nc2c1CN(Cc1ccccc1)CC2 (2.5 µM) 0
CO[C@H]1C[C@@H]2CC[C@@H](C)[C@@](O)(O2)C(=O)C(=O)N2CCCC[C@H]2C(=O)O[C@H]([C@H](C)C[C@@H]2CC[C@@H](OC(=O)C(C)(CO)CO)[C@H](OC)C2)CC(=O)[C@H](C)/C=C(\C)[C@@H](O)[C@@H](OC)C(=O)[C@H](C)C[C@H](C)/C=C/C=C/C=C/1C [Temsirolimus] (2.5 µM) 0
O=C1Nc2ccc(CN3C(=O)CSC3=O)cc2/C1=C/c1cc(CN2CCOCC2)c[nH]1 (10 µM) 0

The molecules below were run against ZAK (UniProt Q9NYL2) in the same assay as above. Conditions: K562; 2-18 h.

kinase-Nluc reporter destabilization hit call, inactive:
N#Cc1cnc2c(Cl)cc(NCc3cn(CCN4CCCCCC4)nn3)cc2c1Nc1ccc(F)c(Cl)c1 [Cot inhibitor-1] (10 µM) 0
Cc1cc(Nc2cc(N)ncn2)c(=O)n2c1C(=O)NC21CCCCC1 [Tomivosertib] (10 µM) 0
CC(Cc1ccc(O)c(O)c1)C(C)Cc1ccc(O)c(O)c1 (configuration not stated) [Nordihydroguaiaretic acid] (2.5 µM) 0
CNC(=O)c1ccc2c(C(=Nc3cccc(CN(C)C)c3)c3ccccc3)c(O)[nH]c2c1 [MEK inhibitor] (10 µM) 0
COC(=O)[C@H](CCSC)NC(=O)c1ccc(NC[C@@H](N)CS)cc1-c1ccccc1 [FTI-277 (hydrochloride)] (10 µM) 0
C=CC(=O)Nc1ccc(C(=O)Nc2[nH]nc3c2CN(C(=O)N[C@H](CN(C)C)c2ccccc2)C3(C)C)cc1 (10 µM) 0
CCN(CC)CCCC(C)Nc1nc(C)cc(Nc2ccc3nc(C)cc(N)c3c2)n1 (configuration not stated) (10 µM) 0
COc1cc(F)ccc1-c1ncnc(Nc2cccc(C[S@](C)(=N)=O)c2)n1 [Atuveciclib] (2.5 µM) 0
O=C(c1cccc(Cl)c1F)N1CCN(Cc2cccc(Nc3nccs3)n2)CC1 (2.5 µM) 0
N#Cc1ccc(-c2cnc3ccc(-c4ccc(C(=O)N5CCOCC5)cc4)cn23)cc1 (10 µM) 0
Cc1ccc(C(=O)NC2CC2)cc1-n1ncc(C(=O)c2cccc(C#N)c2)c1N [Acumapimod] (10 µM) 0
N#Cc1ccc(-c2cnc3[nH]cc(NC(=O)c4cccnc4)c3c2)cc1 (10 µM) 0
CC1(N)CCN(c2cccnc2NC(=O)c2nc(-c3ncccc3C(F)(F)F)cnc2N)CC1 [Darovasertib] (10 µM) 0
COc1cc(N2CCC(N3CCN(C)CC3)CC2)ccc1Nc1ncc(Cl)c(-c2c[nH]c3ccccc23)n1 (2.5 µM) 0
CN1CCN(c2ccc(Nc3ncc4cc(C#N)c(=O)n(C5CCCC5)c4n3)cc2)CC1 (10 µM) 0
CO[C@H]1CC[C@H](N2C(=O)CNc3ncc(-c4ccc(C(C)(C)O)nc4)nc32)CC1 (2.5 µM) 0
Cc1c(C(=O)Nc2ccc(Oc3ccnc4[nH]cc(-c5ccccc5)c34)c(F)c2)c(=O)n(-c2ccc(F)cc2)n1C (10 µM) 0
COc1ccc(Nc2ncc(C(F)(F)F)c(NC3CC3)n2)cc1OC (10 µM) 0
C[C@@H]1O[C@@H](Oc2cc(O)c3c(=O)c(O[C@@H]4O[C@@H](C)[C@H](O)[C@@H](O)[C@H]4O)c(-c4ccc(O)cc4)oc3c2)[C@H](O)[C@H](O)[C@H]1O [Kaempferitrin] (10 µM) 0
COC(=O)Nc1ccc(-c2nc(N3CCOCC3)c3cnn(C4CCN(Cc5cccnc5)CC4)c3n2)cc1 (10 µM) 0
CC(C)Oc1ccc(F)c(-c2cnc(N)c(C(=O)Nc3cnccc3N3CCC[C@@H](C(=O)O)C3)n2)c1 (2 µM) 0
O=Nc1c(-c2c(O)[nH]c3cc(Br)ccc23)[nH]c2ccccc12 [GSK 3 Inhibitor IX] (2.5 µM) 0
NCC1CCC(CNc2nc(NCc3ccccc3OC(F)(F)F)ncc2[N+](=O)[O-])CC1 (configuration not stated) [PKC-theta inhibitor] (10 µM) 0
N[C@@H]1CCCN(c2c(/C=C3\SC(=O)NC3=O)cccc2-c2ccccc2)C1 (10 µM) 0
CCn1c(-c2nonc2N)nc2c(C#CC(C)(C)O)ncc(OC[C@H]3CCCNC3)c21 (10 µM) 0
CNC(=O)c1cc2c(Oc3ccc(NC(=O)C4(C(=O)Nc5ccc(F)cc5)CC4)cc3)ccnc2cc1OC (2.5 µM) 0
C=CC(=O)N1CC[C@@H](Oc2nc(Nc3ccc(N4CCC(N5CCN(C)CC5)CC4)cc3)c(C(N)=O)nc2CC)C1 [Naquotinib (mesylate)] (2.5 µM) 0
C=CC(=O)Nc1cc(Nc2nccc(-c3cn(C)c4ccccc34)n2)c(OC)cc1OCCN(C)C [Rezivertinib] (2.5 µM) 0
Oc1c(F)cc(-c2cnccc2-c2ccc(N3CCOCC3)cc2)cc1F (10 µM) 0
Brc1ccc(CSc2nc3ccccc3o2)cc1 [BMP signaling agonist sb4] (10 µM) 0
O=C1OC(/C=C/c2ccccc2)=NC/1=C\c1cccnc1 (10 µM) 0
O=C(NCCN1CCOCC1)Nc1nc2ccc(Sc3nnc4ccc(-c5ccc(F)cc5)nn34)cc2s1 (10 µM) 0
Cn1c(CNc2cccc(C(=O)NCc3ccccc3C(F)(F)F)c2)nnc1-c1ccncc1 (10 µM) 0
COc1cc2cc(Oc3ccc4ccc(=O)oc4c3)c(=O)oc2cc1O [Daphnoretin] (10 µM) 0
O=C(O)c1cc(N(Cc2ccccc2O)Cc2cc(O)ccc2O)ccc1O [Lavendustin A] (10 µM) 0
Cc1c(Cl)cccc1S(=O)(=O)Nc1nc(NCCc2ccccc2)nc2c1CN(Cc1ccccc1)CC2 (2.5 µM) 0
CO[C@H]1C[C@@H]2CC[C@@H](C)[C@@](O)(O2)C(=O)C(=O)N2CCCC[C@H]2C(=O)O[C@H]([C@H](C)C[C@@H]2CC[C@@H](OC(=O)C(C)(CO)CO)[C@H](OC)C2)CC(=O)[C@H](C)/C=C(\C)[C@@H](O)[C@@H](OC)C(=O)[C@H](C)C[C@H](C)/C=C/C=C/C=C/1C [Temsirolimus] (2.5 µM) 0
O=C1Nc2ccc(CN3C(=O)CSC3=O)cc2/C1=C/c1cc(CN2CCOCC2)c[nH]1 (10 µM) 0
